Measurements reported in PubChem BioAssay AID504808 (Drosophila RNAi Screening Center, 2011).
The deposit covers about 21,000 reagents; shown is a random part of those that have a named target and a result. In the full data, 18 (0.084%) were called active. 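Raw counts without plate normalisation, one of two replicates; the ratio scores behind the calls were not deposited.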 Unmarked entries are inactive. A plus sign joins genes that one reagent is predicted to hit. The record does not give: the amount of reagent, the time to read-out.

Purpose: 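Chromatin factors that keep E2F targets switched off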 (primary screen)
System: Drosophila S2 cells
Reagent: long dsRNA against Drosophila genes
Measurement: 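Dual luciferase plate measurements; E2F-specific signal taken as firefly over Renilla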
Scale: E2F firefly: higher = more E2F reporter activity; Renilla normaliser: higher = more normaliser reporter signal
Active means: 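Called active if the normalised E2F reporter went up by over 50%; the cutoff is arbitrary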

| gene | DRSC id | E2F firefly, rep 1 | Renilla normaliser, rep 1 |
| --- | --- | --- | --- |
| CG46385 | DRSC06425 | 1942 | 168 |
| CG46385 | DRSC06557 | 1.45e5 | 4861 |
| CG30259 | DRSC04164 | 1.08e5 | 4478 |
| CG30259 | DRSC04165 | 98046 | 4270 |
| Srg1 | DRSC14640 | 1.10e5 | 5448 |
| CG10669 | DRSC14261 | 80417 | 4483 |
| Usp30 | DRSC18265 | 55164 | 3360 |
| CG4896 | DRSC00671 | 82735 | 3638 |
| CG17490 | DRSC03794 | 1.18e5 | 4855 |
| CG17490 | DRSC03797 | 97211 | 4219 |
| Obp50d | DRSC05483 | 1.38e5 | 4998 |
| GstE11 | DRSC06926 | 76014 | 3838 |
| Chsy | DRSC20175 | 1.50e5 | 5838 |
| Chsy | DRSC20176 | 1.53e5 | 5927 |
| Prosbeta4R1 | DRSC00502 | 1.72e5 | 6510 |
| Tmtc3 | DRSC04444 | 80254 | 3272 |
| Rab30 | DRSC03137 | 1.45e5 | 5042 |
| CG31259 | DRSC14366 | 1.39e5 | 6647 |
| CG9897 + asRNA:CR42742 | DRSC04595 | 95813 | 3717 |
| Tsp68C | DRSC09295 | 1.46e5 | 3183 |
| CG4612 | DRSC04478 | 64353 | 3620 |
| Acbp5 | DRSC10548 | 1.02e5 | 4469 |
| CG4168 | DRSC01446 | 1.25e5 | 5446 |
| CG4168 | DRSC01447 | 1.37e5 | 5325 |
| CG4168 | DRSC01933 | 74991 | 3304 |
| Npc2h | DRSC14297 | 1.25e5 | 6468 |
| Jhe | DRSC07174 | 1.36e5 | 4314 |
| CG9593 | DRSC16508 | 1.19e5 | 6762 |
| zld | DRSC19486 | 1.35e5 | 4457 |
| Nop56 | DRSC14699 | 70635 | 3711 |
| Mdh1 (retired record) | DRSC02846 | 1.36e5 | 4930 |
| RpS24 | DRSC04414 | 73909 | 3702 |
| CG5359 | DRSC15780 | 1.63e5 | 5719 |
| CG14778 | DRSC17953 | 1.32e5 | 5859 |
| CG40948 (retired record) | DRSC20944 | 92884 | 2741 |
| GstE4 | DRSC06674 | 1.44e5 | 4398 |
| E(Pc) | DRSC05281 | 1.38e5 | 6391 |
| E(Pc) | DRSC07408 | 95442 | 4447 |

The list goes on (7 carried over from the part before).
| gene | DRSC id | E2F firefly, rep 1 | Renilla normaliser, rep 1 |
| --- | --- | --- | --- |
| RpS24 | DRSC04414 | 73909 | 3702 |
| CG5359 | DRSC15780 | 1.63e5 | 5719 |
| CG14778 | DRSC17953 | 1.32e5 | 5859 |
| CG40948 (retired record) | DRSC20944 | 92884 | 2741 |
| GstE4 | DRSC06674 | 1.44e5 | 4398 |
| E(Pc) | DRSC05281 | 1.38e5 | 6391 |
| E(Pc) | DRSC07408 | 95442 | 4447 |
| Ak3 | DRSC16075 | 1.33e5 | 5783 |
| Rph | DRSC17790 | 50076 | 3778 |
| Osi15 | DRSC12178 | 1.35e5 | 6170 |
| Dpp10 | DRSC00942 | 1.35e5 | 5604 |
| Dpp10 | DRSC02139 | 1.50e5 | 5692 |
| CG34181 | DRSC01071 | 1.24e5 | 6466 |
| Rpp25 | DRSC05002 | 99309 | 4159 |
| CG12986 | DRSC19506 | 2.18e5 | 10659 |
| Ids | DRSC08222 | 1.02e5 | 4575 |
| CG11262 | DRSC09831 | 1.41e5 | 8470 |
| CG8460 | DRSC03090 | 85090 | 3348 |
| CG8112 | DRSC16377 | 1.18e5 | 6405 |
| stl | DRSC04396 | 81802 | 3442 |
| ss | DRSC17069 | 1.28e5 | 6836 |
| CG9547 | DRSC03260 | 94558 | 3946 |
| Mkrn1 | DRSC11870 | 1.44e5 | 7101 |
| CG42237 | DRSC19891 | 1.32e5 | 6254 |
| CG14780 | DRSC18566 | 1.13e5 | 5453 |
| sut4 | DRSC07703 | 3002 | 227 |
| RpS8 | DRSC16318 | 55421 | 6242 |
| CG3092 | DRSC04336 | 74521 | 3281 |
| Dbp21E2 | DRSC00616 | 76700 | 3906 |
| RhoBTB | DRSC11877 | 75215 | 4320 |
| CG31098 | DRSC14259 | 1.13e5 | 5902 |
| Hacd2 | DRSC03181 | 1.02e5 | 4566 |
| Sec61alpha | DRSC03256 | 65246 | 3043 |
| Syx13 | DRSC09836 | 1.17e5 | 7012 |
| CG7966 | DRSC16356 | 75782 | 3359 |
| mars | DRSC06656 | 74051 | 3873 |
| CG8176 | DRSC16394 | 1.33e5 | 5246 |
| CG12091 | DRSC08251 | 1.16e5 | 4744 |
| CG12730 | DRSC17885 | 1.17e5 | 4956 |
| CG3679 | DRSC19346 | 8160 | 732 |
| CG5335 | DRSC06931 | 82088 | 3676 |
| sstn | DRSC10753 | 1.48e5 | 6989 |
| Or59b | DRSC04632 | 1.06e5 | 4473 |
| Cyp4e1 | DRSC07370 | 1.50e5 | 5143 |
| Mob3 | DRSC02791 | 1.64e5 | 5246 |
| CG15745 (retired record) | DRSC19711 | 7844 | 425 |
| CG13516 | DRSC04159 | 1.09e5 | 4554 |
| CG14830 | DRSC08876 | 1.44e5 | 5200 |
| CG14830 | DRSC10200 | 98240 | 3774 |
| Tsp42Ec | DRSC06192 | 1.53e5 | 5417 |
| Task7 | DRSC16477 | 1.47e5 | 6556 |
| TTLL1A | DRSC20121 | 1.53e5 | 5314 |
| crim | DRSC10573 | 63593 | 2850 |
| Atxn7 | DRSC00726 | 84797 | 3405 |
| mir-210 (retired record) | DRSC19230 | 93050 | 2799 |
| mmy | DRSC02002 | 89331 | 3737 |
| CG8768 | DRSC07259 | 164 | 37 |
| CG32755 | DRSC18397 | 98145 | 5340 |
| CG14507 | DRSC14859 | 1.10e5 | 5327 |
| CG34276 | DRSC15811 | 1.14e5 | 5998 |
| bab2 | DRSC08150 | 94355 | 4182 |
| bab2 | DRSC08380 | 1.04e5 | 3739 |
| GstD2 | DRSC16684 | 1.42e5 | 7127 |
| CG32248 | DRSC08102 | 1.41e5 | 4483 |
| Muc12Ea | DRSC19937 | 2.33e5 | 7900 |
| alpha-Man-IIb | DRSC16898 | 72129 | 3877 |
| Syx18 | DRSC14628 | 66870 | 4280 |
| CG17325 + CG42305 | DRSC02602 | 1.16e5 | 4242 |
| Mhcl | DRSC13130 | 83996 | 2496 |
| Mhcl | DRSC14216 | 1.27e5 | 6525 |
| Mhcl | DRSC16753 | 1.28e5 | 7116 |
| tamo | DRSC04446 | 80757 | 3732 |
| raptor | DRSC18359 | 55278 | 3891 |
| CG31007 | DRSC14029 | 82231 | 2659 |
| CG8814 | DRSC00707 | 82208 | 3346 |
| CG14207 | DRSC19562 | 1.60e5 | 5885 |
| CG14207 | DRSC19563 | 1.32e5 | 157 |
